Measured values published in the supplement of paper PMC9254222.
Over roughly 1,100 compounds, “Renilla luciferase signal (cell health) relative to plate median” has its median near 0.97; the highest 2% begin near 1.6. Only a part is listed here, and it is no random draw.

System: HEK293T (UBE3A T485A transfected, BAR Wnt reporter)
Experiment: Renilla luciferase signal (cell health) relative to plate median (fold (linear ratio)); higher = higher Renilla signal
Settings: 24 h
Outline: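 Chemicals were robotically dosed at 0.01–100 uM for 24 h onto HEK293T cells, starting four hours after transfection with a BAR firefly luciferase Wnt reporter, TK-Renilla and an expression plasmid. The cells had been plated at 4500 cells/well in DMEM with 10% FBS at 37°C and 5% CO2. Following a Dual-Glo luciferase readout, the firefly/Renilla ratio served as the Wnt activity measure and raw Renilla as the cell health measure, both median-centred on each plate. Each value is the mean of four biological replicates.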

Structure (SMILES)	Renilla luciferase signal (concentration: 0.1 uM)	Renilla luciferase signal (concentration: 1 uM)	Renilla luciferase signal (concentration: 10 uM)	Renilla luciferase signal (concentration: 100 uM)	Renilla luciferase signal (concentration: 0.01 uM)
CC(C)(C)c1ccccc1O [2-tert-Butylphenol]	0.823	0.913	0.724	0.378	–
C#CCC1=C(C)C(OC(=O)C2C(C=C(C)C)C2(C)C)CC1=O (stereo unspecified) [Prallethrin]	1.03	1.08	0.99	0.132	1.26
CCCCCCCCCc1ccc(O)cc1 [4-Nonylphenol, branched]	1	0.945	1.06	0.973	–
Clc1cccc(C(Cl)(Cl)Cl)n1 [Nitrapyrin]	0.936	1.01	0.981	1.23	0.668
CNc1cnn(-c2cccc(C(F)(F)F)c2)c(=O)c1Cl [Norflurazon]	0.78	0.77	0.879	1.28	1.06
CCC(=O)C(CC(C)N(C)C)(c1ccccc1)c1ccccc1.Cl (stereo unspecified) [Methadone hydrochloride]	1.01	1.01	1.07	0.142	–
CC(C)=CC1C(C(=O)OCN2C(=O)C3=C(CCCC3)C2=O)C1(C)C (stereo unspecified) [Tetramethrin]	0.959	0.83	1.01	1.08	0.966
CC(=O)N=C1C=CC(=O)C=C1	0.982	0.94	1.19	0.742	1.05
CS(=O)(=O)c1ccc(C(=O)C2C(=O)CCCC2=O)c([N+](=O)[O-])c1 [Mesotrione]	0.808	0.956	1.03	1.39	0.834
C=CCOC(=O)C(C)(C)OC(=O)c1cc(-n2c(=O)cc(C(F)(F)F)n(C)c2=O)ccc1Cl [Butafenacil]	1.27	1.1	0.865	1.16	0.995
CN(C)NC(=O)CCC(=O)O [Daminozide]	0.735	0.928	0.807	1.39	0.728
NS(=O)(=O)C(F)(F)C(F)(F)C(F)(F)C(F)(F)C(F)(F)C(F)(F)C(F)(F)C(F)(F)F	0.448	0.567	0.447	0.0943	–
O=P(OCCCl)(OCCCl)OCCCl [Tris(2-chloroethyl) phosphate]	1.28	1.16	0.953	1.26	–
CCSC(=O)N(CC)C1CCCCC1 [Cycloate]	0.996	0.924	1.01	1.15	0.797
CSc1nc(NC(C)C)nc(NC(C)C)n1 [Prometryn]	1.03	0.973	1.01	0.989	1.14
O.[Br-].[Br-].c1cc[n+]2c(c1)-c1cccc[n+]1CC2 [Diquat dibromide monohydrate]	1.01	1.01	1.01	1.24	0.901
Oc1nc(O)nc(O)n1 [Cyanuric acid]	0.931	0.924	1.05	0.976	–
OCC1CO1 (stereo unspecified) [Glycidol]	0.963	0.89	1.04	1.1	–
O=c1n(Cl)c(=O)n(Cl)c(=O)n1Cl [Symclosene]	–	–	–	1.88	–
O=C1CCCO1 [4-Butyrolactone]	0.916	0.91	0.928	1.07	–
Cc1cc(N=Nc2ccccc2C)ccc1N [2-Amino-5-azotoluene]	0.844	0.724	0.656	0.424	–

In the list so far, 7 have nitrogen in an aromatic ring.
Structure (SMILES)	Renilla luciferase signal (concentration: 0.1 uM)	Renilla luciferase signal (concentration: 1 uM)	Renilla luciferase signal (concentration: 10 uM)	Renilla luciferase signal (concentration: 100 uM)	Renilla luciferase signal (concentration: 0.01 uM)
Clc1cccc(C(Cl)(Cl)Cl)n1 [Nitrapyrin]	0.936	1.01	0.981	1.23	0.668
CNc1cnn(-c2cccc(C(F)(F)F)c2)c(=O)c1Cl [Norflurazon]	0.78	0.77	0.879	1.28	1.06
C=CCOC(=O)C(C)(C)OC(=O)c1cc(-n2c(=O)cc(C(F)(F)F)n(C)c2=O)ccc1Cl [Butafenacil]	1.27	1.1	0.865	1.16	0.995
CSc1nc(NC(C)C)nc(NC(C)C)n1 [Prometryn]	1.03	0.973	1.01	0.989	1.14
O.[Br-].[Br-].c1cc[n+]2c(c1)-c1cccc[n+]1CC2 [Diquat dibromide monohydrate]	1.01	1.01	1.01	1.24	0.901
Oc1nc(O)nc(O)n1 [Cyanuric acid]	0.931	0.924	1.05	0.976	–
O=c1n(Cl)c(=O)n(Cl)c(=O)n1Cl [Symclosene]	–	–	–	1.88	–

Later entries.

Structure (SMILES)	Renilla luciferase signal (concentration: 0.1 uM)	Renilla luciferase signal (concentration: 1 uM)	Renilla luciferase signal (concentration: 10 uM)	Renilla luciferase signal (concentration: 100 uM)	Renilla luciferase signal (concentration: 0.01 uM)
CCCC(=NOCC)C1=C(O)CC(CC(C)SCC)CC1=O (stereo unspecified) [Sethoxydim]	0.945	0.86	0.907	1.19	1.01
c1ccc(-c2ccccc2)cc1 [Biphenyl]	0.779	0.922	0.845	0.979	–
Nc1cc2c3c(c1)C(c1ccccc1)=N[C@@H](NC(=O)c1cccnc1)C(=O)N3CC2	0.898	0.862	0.898	0.793	–
C[C@]12C=CC3=C4CCC(=O)C=C4CC[C@H]3[C@@H]1CC[C@@H]2O [17beta-Trenbolone]	1.04	1.14	1.26	0.961	–
OCCCBr [3-Bromo-1-propanol]	0.865	0.896	0.988	0.976	–
CS(=O)CCCCN=C=S (stereo unspecified) [Sulforaphane]	0.902	0.946	0.812	0.00245	0.847
C=CCc1ccc2c(c1)OCO2 [Safrole]	0.871	0.86	0.978	1.19	–
CC(C)(C)C(O)/C(=C\c1ccc(Cl)cc1Cl)n1cncn1 (stereo unspecified) [Diniconazole]	1.08	0.922	0.952	0.0497	1.01
N#Cc1ccc(N(CC(N)=O)CC(F)(F)F)cc1C(F)(F)F	1.27	1.17	1.34	1.28	–
CN(C)C(=O)Nc1cccc(C(F)(F)F)c1 [Fluometuron]	–	–	–	1.74	–
CCN(CC)CCO [N,N-Diethylethanolamine]	1.01	1.07	1.09	1.02	–
CCC[CH2][Sn]([Cl])([CH2]CCC)[CH2]CCC [Tributyltin chloride]	0.598	0.574	0.235	0.0217	–
CCOP(=S)(OCC)Oc1nc(Cl)n(C(C)C)n1 [Isazofos]	1.06	0.963	1.04	1.29	1.12
CCOc1ccc(C(C)(C)COCc2cccc(Oc3ccccc3)c2)cc1 [Etofenprox]	1.01	1.12	0.95	1.14	–
CCCCC(O)(Cn1cncn1)c1ccc(Cl)cc1Cl (stereo unspecified) [Hexaconazole]	1.25	1	1.1	0.0939	1.19
ClC1=C(Cl)C2(Cl)C3C(Cl)C(Cl)CC3C1(Cl)C2(Cl)Cl (stereo unspecified) [Chlordane]	0.974	1.06	1.08	1.14	–
COP(=S)(OC)Oc1nc(Cl)c(Cl)cc1Cl [Chlorpyrifos-methyl]	1.18	1.01	1.04	0.838	1.5
Clc1cccc(Cl)c1 [1,3-Dichlorobenzene]	0.976	1.06	1.08	1.26	–
CC1C(c2ccc(Cl)cc2)SC(=O)N1C(=O)NC1CCCCC1 (stereo unspecified) [Hexythiazox]	0.999	0.929	0.977	0.244	0.957
O=S(=O)([O-])C(F)(F)C(F)(F)C(F)(F)C(F)(F)C(F)(F)C(F)(F)F.[K+]	1.04	0.983	1.1	0.867	–
CCCN(CCOc1c(Cl)cc(Cl)cc1Cl)C(=O)n1ccnc1 [Prochloraz]	0.867	1.02	0.796	0.267	0.793
